PubChem BioAssay AID1224830 | NIAID | 2016

- Test: 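Regulators of TLR4 signalling towards TNF-alpha in macrophage-like cells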 (primary screen)
- Cell system: human THP-1 monocytic leukaemia cells, TNF dual-luciferase reporter clone, PMA-differentiated to macrophage-like cells
- Reagents: siRNA pool against human genes, 50 nM
- Duration: LPS for 4 h, given about 3 days after siRNA transfection
- Treatment: bacterial LPS (TLR4 ligand), 10 ng/ml
- Read-out: 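Ratio of firefly to renilla light, scaled to the plate median and expressed as a robust z-score per replicate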
- Direction: TNF reporter robust z-score: higher = stronger TNF reporter response to LPS
- Active means: 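a well is active when its z-score exceeds 2.8 or falls below -1.5; control wells carry no call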
In all, the deposit lists about 18,000 reagents; below is a random part of them. About 2,900 of them (16%) count as active. 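Calls are made per well; low scores hint the gene aids the LPS response, high scores that it dampens it.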 Repeated entries: four replicate wells of each siRNA pool.

The opening 8 records, to show the layout:
| target gene | TNF reporter robust z-score | outcome |
| --- | --- | --- |
| BAG1 | -1.36 | inactive |
| BAG1 | -0.63 | inactive |
| BAG1 | -0.53 | inactive |
| BAG1 | -1.5 | inactive |
| NEU4 | 0.2 | inactive |
| NEU4 | -0.14 | inactive |
| NEU4 | 0.69 | inactive |
| NEU4 | 1.33 | inactive |

Results, repeating the preview:
| target gene | TNF reporter robust z-score | outcome |
| --- | --- | --- |
| BAG1 | -1.36 | inactive |
| BAG1 | -0.63 | inactive |
| BAG1 | -0.53 | inactive |
| BAG1 | -1.5 | inactive |
| NEU4 | 0.2 | inactive |
| NEU4 | -0.14 | inactive |
| NEU4 | 0.69 | inactive |
| NEU4 | 1.33 | inactive |
| NALCN | -1.13 | inactive |
| NALCN | -0.43 | inactive |
| NALCN | -0.59 | inactive |
| NALCN | 0.56 | inactive |
| VAT1L | 2.03 | inactive |
| VAT1L | 0.19 | inactive |
| VAT1L | 0.56 | inactive |
| VAT1L | 1.46 | inactive |
| STK4 | 2.82 | active |
| STK4 | -0.23 | inactive |
| STK4 | 0.45 | inactive |
| STK4 | 0.7 | inactive |
| NUDT10 | -0.2 | inactive |
| NUDT10 | -0.06 | inactive |
| NUDT10 | 0.44 | inactive |
| NUDT10 | -0.52 | inactive |
| MRPL45 | 0.91 | inactive |
| MRPL45 | 2.39 | inactive |
| MRPL45 | -0.42 | inactive |
| MRPL45 | 1.33 | inactive |
| GPR141 | -0.06 | inactive |
| GPR141 | -0.22 | inactive |
| GPR141 | -0.3 | inactive |
| GPR141 | 0.07 | inactive |
| SEC24D | 0.51 | inactive |
| SEC24D | 0.25 | inactive |
| SEC24D | 0.13 | inactive |
| SEC24D | 0.28 | inactive |
| RBM28 | 0.03 | inactive |
| RBM28 | 0.64 | inactive |
| RBM28 | 0.71 | inactive |
| RBM28 | 2.32 | inactive |
| CSNK1A1 | -0.17 | inactive |
| CSNK1A1 | -0.53 | inactive |
| CSNK1A1 | -0.52 | inactive |
| CSNK1A1 | 1.04 | inactive |
| OR7C2 | 0.24 | inactive |
| OR7C2 | 0.87 | inactive |
| OR7C2 | 0.69 | inactive |
| OR7C2 | -0.89 | inactive |
| MCOLN1 | 0.54 | inactive |
| MCOLN1 | -0.36 | inactive |
| MCOLN1 | 0.66 | inactive |
| MCOLN1 | 2.69 | inactive |
| TOP2A | 2.55 | inactive |
| TOP2A | -0.8 | inactive |
| TOP2A | -1.11 | inactive |
| TOP2A | -1.34 | inactive |
| TMEM68 | -1.29 | inactive |
| TMEM68 | 0.15 | inactive |
| TMEM68 | -0.93 | inactive |
| TMEM68 | 0.55 | inactive |
| NEK7 | -0.03 | inactive |
| NEK7 | 0.97 | inactive |
| NEK7 | -0.29 | inactive |
| NEK7 | 0.41 | inactive |
| SLC30A2 | 0.3 | inactive |
| SLC30A2 | 0.49 | inactive |
| SLC30A2 | 0.17 | inactive |
| SLC30A2 | 0.29 | inactive |
| PGLYRP3 | -2.01 | active |
| PGLYRP3 | -2.12 | active |
| PGLYRP3 | -1.58 | active |
| PGLYRP3 | -1.56 | active |
| FUOM | -0.09 | inactive |
| FUOM | 0.4 | inactive |
| FUOM | 0.12 | inactive |
| FUOM | 0.8 | inactive |
